Test results as given in the supplement of paper PMC10849652.
The list shows a part of the results.

Amino acid sequences for entries named in this document (tags omitted). A change or cut given only in a name is not applied to a line headed by its entry.
UniProt Q5M7Z0: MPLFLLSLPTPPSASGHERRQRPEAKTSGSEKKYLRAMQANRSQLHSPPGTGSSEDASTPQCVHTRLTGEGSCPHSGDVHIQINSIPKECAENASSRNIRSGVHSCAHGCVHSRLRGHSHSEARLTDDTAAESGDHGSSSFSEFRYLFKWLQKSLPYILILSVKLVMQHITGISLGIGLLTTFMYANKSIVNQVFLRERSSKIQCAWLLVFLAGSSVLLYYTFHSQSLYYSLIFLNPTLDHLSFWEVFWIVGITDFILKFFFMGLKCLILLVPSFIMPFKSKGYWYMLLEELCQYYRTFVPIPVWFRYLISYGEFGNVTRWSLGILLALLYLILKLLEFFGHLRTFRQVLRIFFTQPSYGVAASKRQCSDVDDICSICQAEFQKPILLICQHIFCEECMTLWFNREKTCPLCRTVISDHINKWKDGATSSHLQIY
UniProt Q96K19: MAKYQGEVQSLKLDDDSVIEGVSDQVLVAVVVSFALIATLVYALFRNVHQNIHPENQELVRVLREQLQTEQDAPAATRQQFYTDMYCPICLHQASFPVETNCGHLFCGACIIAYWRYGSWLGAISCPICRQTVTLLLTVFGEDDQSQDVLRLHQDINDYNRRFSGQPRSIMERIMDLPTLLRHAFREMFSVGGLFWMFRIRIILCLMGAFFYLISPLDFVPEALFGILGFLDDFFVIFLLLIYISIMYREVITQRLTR
UniProt Q9Y225: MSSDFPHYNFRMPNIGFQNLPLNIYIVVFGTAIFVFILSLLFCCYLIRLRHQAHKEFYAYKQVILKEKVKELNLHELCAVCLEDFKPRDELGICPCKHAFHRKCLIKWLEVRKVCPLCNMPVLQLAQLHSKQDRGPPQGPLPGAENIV
UniProt Q86UA6: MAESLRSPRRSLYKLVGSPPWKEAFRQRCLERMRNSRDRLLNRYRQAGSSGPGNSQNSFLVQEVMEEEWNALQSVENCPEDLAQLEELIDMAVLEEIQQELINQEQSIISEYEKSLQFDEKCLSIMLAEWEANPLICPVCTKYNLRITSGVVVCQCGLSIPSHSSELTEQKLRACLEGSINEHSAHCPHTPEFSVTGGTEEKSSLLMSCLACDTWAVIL
UniProt Q8WU17: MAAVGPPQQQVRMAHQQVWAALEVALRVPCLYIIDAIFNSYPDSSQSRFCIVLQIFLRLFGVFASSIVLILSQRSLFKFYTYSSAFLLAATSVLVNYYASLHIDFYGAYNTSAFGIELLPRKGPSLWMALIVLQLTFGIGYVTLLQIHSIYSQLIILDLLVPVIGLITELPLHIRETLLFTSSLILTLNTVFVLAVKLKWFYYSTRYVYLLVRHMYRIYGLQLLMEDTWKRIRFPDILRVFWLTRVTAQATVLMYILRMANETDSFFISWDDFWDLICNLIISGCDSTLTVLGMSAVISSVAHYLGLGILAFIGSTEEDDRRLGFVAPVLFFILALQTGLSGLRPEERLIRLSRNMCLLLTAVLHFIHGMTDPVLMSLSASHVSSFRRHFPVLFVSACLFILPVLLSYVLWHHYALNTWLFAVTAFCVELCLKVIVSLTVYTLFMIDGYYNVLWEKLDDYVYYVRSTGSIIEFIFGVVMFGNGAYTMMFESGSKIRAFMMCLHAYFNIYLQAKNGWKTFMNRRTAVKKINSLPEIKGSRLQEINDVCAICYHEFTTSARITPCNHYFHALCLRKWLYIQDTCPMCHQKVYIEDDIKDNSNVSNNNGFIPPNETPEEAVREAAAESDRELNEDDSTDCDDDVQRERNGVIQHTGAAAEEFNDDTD
UniProt Q8N5U6: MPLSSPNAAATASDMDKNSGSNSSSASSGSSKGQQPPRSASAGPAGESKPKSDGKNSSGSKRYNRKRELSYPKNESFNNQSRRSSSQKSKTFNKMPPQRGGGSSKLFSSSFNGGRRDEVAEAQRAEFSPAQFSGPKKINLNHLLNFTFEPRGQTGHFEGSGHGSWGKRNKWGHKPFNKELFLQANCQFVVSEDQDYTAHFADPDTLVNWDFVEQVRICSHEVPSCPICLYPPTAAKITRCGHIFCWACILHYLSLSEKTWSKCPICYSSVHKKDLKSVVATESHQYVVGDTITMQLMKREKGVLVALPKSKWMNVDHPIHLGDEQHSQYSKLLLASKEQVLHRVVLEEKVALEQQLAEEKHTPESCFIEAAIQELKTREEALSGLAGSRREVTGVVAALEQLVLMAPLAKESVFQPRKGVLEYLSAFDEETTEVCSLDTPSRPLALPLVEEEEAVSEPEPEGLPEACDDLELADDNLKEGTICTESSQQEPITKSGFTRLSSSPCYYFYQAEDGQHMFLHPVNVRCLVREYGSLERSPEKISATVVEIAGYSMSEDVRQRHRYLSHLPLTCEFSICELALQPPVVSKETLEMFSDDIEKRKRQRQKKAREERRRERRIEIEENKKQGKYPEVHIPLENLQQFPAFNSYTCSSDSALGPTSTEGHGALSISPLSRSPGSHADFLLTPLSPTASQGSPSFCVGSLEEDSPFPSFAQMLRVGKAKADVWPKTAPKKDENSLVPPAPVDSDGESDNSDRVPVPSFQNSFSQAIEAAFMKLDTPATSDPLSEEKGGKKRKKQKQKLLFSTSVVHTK
UniProt Q9HCK4: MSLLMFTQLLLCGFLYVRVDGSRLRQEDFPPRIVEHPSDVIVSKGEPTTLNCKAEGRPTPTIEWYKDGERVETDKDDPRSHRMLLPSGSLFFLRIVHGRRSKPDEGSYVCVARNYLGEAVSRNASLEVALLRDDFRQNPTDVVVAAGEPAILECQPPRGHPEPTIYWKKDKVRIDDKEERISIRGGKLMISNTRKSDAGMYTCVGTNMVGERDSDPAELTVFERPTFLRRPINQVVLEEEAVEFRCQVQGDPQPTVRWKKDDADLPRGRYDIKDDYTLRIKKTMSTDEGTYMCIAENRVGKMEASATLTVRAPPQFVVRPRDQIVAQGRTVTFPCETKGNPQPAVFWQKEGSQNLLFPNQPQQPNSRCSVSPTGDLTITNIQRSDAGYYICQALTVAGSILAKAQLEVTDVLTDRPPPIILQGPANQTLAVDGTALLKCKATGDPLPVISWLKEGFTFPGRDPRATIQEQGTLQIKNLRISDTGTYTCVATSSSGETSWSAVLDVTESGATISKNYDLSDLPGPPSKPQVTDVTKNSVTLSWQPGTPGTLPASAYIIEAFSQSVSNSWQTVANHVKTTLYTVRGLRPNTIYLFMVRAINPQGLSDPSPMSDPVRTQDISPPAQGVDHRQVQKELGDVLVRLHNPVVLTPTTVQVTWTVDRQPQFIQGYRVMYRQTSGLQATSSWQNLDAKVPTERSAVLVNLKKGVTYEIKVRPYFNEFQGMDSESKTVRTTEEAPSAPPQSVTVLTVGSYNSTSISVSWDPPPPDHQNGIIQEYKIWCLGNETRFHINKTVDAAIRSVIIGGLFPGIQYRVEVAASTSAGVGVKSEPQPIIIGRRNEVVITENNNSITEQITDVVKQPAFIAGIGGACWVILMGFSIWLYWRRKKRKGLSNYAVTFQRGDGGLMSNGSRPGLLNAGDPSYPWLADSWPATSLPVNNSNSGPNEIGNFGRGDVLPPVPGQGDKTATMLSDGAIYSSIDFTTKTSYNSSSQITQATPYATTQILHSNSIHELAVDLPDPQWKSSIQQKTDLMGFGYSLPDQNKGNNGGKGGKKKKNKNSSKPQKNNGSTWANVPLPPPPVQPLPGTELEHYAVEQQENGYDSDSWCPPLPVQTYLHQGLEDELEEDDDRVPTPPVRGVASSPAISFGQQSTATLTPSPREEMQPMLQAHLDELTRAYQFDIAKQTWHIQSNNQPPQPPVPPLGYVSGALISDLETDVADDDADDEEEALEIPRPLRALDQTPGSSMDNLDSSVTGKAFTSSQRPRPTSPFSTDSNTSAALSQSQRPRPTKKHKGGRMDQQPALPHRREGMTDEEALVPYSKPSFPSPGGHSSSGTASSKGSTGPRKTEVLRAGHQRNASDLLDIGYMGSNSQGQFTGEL

Key:
Assay in all cases: log2 fold change, soluble protein after heating vs DMSO (PISA); higher = thermal stabilisation; K562 lysate, 10 uM; active = over 0.2 and 3.5 SD of the protein, either way, in both replicates (recomputed)
nilotinib = compound: Cc1cn(-c2cc(NC(=O)c3ccc(C)c(Nc4nccc(-c5cccnc5)n4)c3)cc(C(F)(F)F)c2)cn1 [nilotinib]
Method in brief: (§1)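 Pellets of K562 cells were dounce-homogenised in PBS pH 7.4 with 1 mM MgCl2, and the crude extract was held at 1 mg/mL protein for a 30 min treatment with 10 μM compound. Aliquots were heated for 3 min over 48°C-58°C and pooled before NP-40 was added to 0.5% at 4°C. The supernatant from 21,000xg for 90 min was quantified by TMTpro 16plex LC-MS/MS with channel sums equalised. Values are reported from duplicates as log-two fold change in thermal stability relative to solvent controls.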

[1] = compound: Cc1nc(Nc2n[nH]c3c2CN(C(=O)N[C@H](CN(C)C)c2ccccc2)C3(C)C)c2sccc2n1
Method in brief: as §1

dasatinib = compound: Cc1nc(Nc2ncc(C(=O)Nc3c(C)cccc3Cl)s2)cc(N2CCN(CCO)CC2)n1 [dasatinib]
Method in brief: as §1

[2] = compound: Cc1ncc(-c2ccnc(Nc3ccc(S(C)(=O)=O)cc3)n2)n1C(C)C
Method in brief: as §1

[3] = compound: Cn1cc(-c2ccc3c(c2)CCN3C(=O)Cc2cccc(C(F)(F)F)c2)c2c(N)ncnc21
Method in brief: as §1

tipifarnib = compound: Cn1cncc1[C@@](N)(c1ccc(Cl)cc1)c1ccc2c(c1)c(-c1cccc(Cl)c1)cc(=O)n2C [tipifarnib]
Method in brief: as §1

[4] = compound: NC1(c2ccc(-c3nc4ccn5c(=O)[nH]nc5c4cc3-c3ccccc3)cc2)CCC1
Method in brief: as §1

vorinostat = compound: O=C(CCCCCCC(=O)Nc1ccccc1)NO [vorinostat]
Method in brief: as §1

silmitasertib = compound: O=C(O)c1ccc2c(c1)nc(Nc1cccc(Cl)c1)c1ccncc12 [silmitasertib]
Method in brief: as §1

entospletinib = compound: c1cn2cc(-c3ccc4cn[nH]c4c3)nc(Nc3ccc(N4CCOCC4)cc3)c2n1 [entospletinib]
Method in brief: as §1

[5] = compound: NC(=O)c1cnc(N[C@@H]2CCCC[C@@H]2N)nc1Nc1cccc(-n2nccn2)c1
Method in brief: as §1

[6] = compound: NCC(=O)Nc1ccc(-n2nc(C(F)(F)F)cc2-c2ccc3c(ccc4ccccc43)c2)cc1
Method in brief: as §1

quisinostat = compound: Cn1cc(CNCC2CCN(c3ncc(C(=O)NO)cn3)CC2)c2ccccc21 [quisinostat]
Method in brief: as §1

[7] = compound: NC(=O)Nc1cc(-c2cccc(F)c2)sc1C(=O)N[C@H]1CCCNC1
Method in brief: as §1

[8] = compound: O=C1NC(=O)C(c2cnc3ccccn23)=C1c1cn2c3c(cc(F)cc13)CN(C(=O)N1CCCCC1)CC2
Method in brief: as §1

Measured: log2 fold change

RNFT1 (UniProt Q5M7Z0)
inactive: nilotinib 0.01 | [1] 0.109 | dasatinib 0.174 | [2] -0.145 | [3] -0.201 | tipifarnib 0.169 | [4] -0.005 | vorinostat 0.081 | silmitasertib 0.099 | entospletinib -0.016

RNF170 (UniProt Q96K19)
inactive: nilotinib -0.04 | [1] 0 | dasatinib -0.008 | [2] 0.043 | [3] -0.028 | tipifarnib -0.3 | [5] -0.07 | [4] 0.073 | [6] -0.003 | vorinostat 0.004 | silmitasertib 0.169

RPL22L1 (UniProt Q6P5R6)
inactive: dasatinib -1.13 | [3] 0.347 | entospletinib 0.371

RNF24 isoform 2 (UniProt Q9Y225)
active: vorinostat 0.918
inactive: nilotinib 0.105 | [1] -0.028 | [2] 0.123 | quisinostat -0.139 | tipifarnib 0.034 | [7] -0.075 | [4] 0.051 | silmitasertib -0.117 | [8] 0.016

RPAIN isoform 8 (UniProt Q86UA6)
inactive: [6] -0.063 | entospletinib -0.001

2 consecutive records already listed, for reference:
RNF24 isoform 2 (UniProt Q9Y225)
active: vorinostat 0.918
inactive: nilotinib 0.105 | [1] -0.028 | [2] 0.123 | quisinostat -0.139 | tipifarnib 0.034 | [7] -0.075 | [4] 0.051 | silmitasertib -0.117 | [8] 0.016

RPAIN isoform 8 (UniProt Q86UA6)
inactive: [6] -0.063 | entospletinib -0.001

(cont.)

RNF139 (UniProt Q8WU17)
inactive: quisinostat -0.041 | [7] 0.028 | [4] -0.017 | [6] -0.026 | vorinostat -0.038 | silmitasertib 0.012 | [8] -0.027

RNF10 isoform 2 (UniProt Q8N5U6)
inactive: dasatinib 0.058 | [3] -0.034 | quisinostat -0.117 | [7] 0.086 | [5] 0.489 | [4] -0.087 | vorinostat 0.028 | silmitasertib 0.07 | [8] -0.039 | entospletinib 0.038

ROBO2 isoform 3 (UniProt Q9HCK4)
inactive: quisinostat 0.052 | [7] 0.009 | [5] 0.043 | [4] 0.005 | vorinostat 0.136 | silmitasertib -0.019 | [8] -0.042

RNF167 (UniProt Q9H6Y7)
inactive: dasatinib -0.005 | [3] 0.047 | quisinostat 0 | [7] 0.02 | [5] -0.009 | [8] -0.023
